Measured values: the supplement of paper PMC4604168 (melanoma cell lines)
The other results are listed elsewhere or left out. Many values rest on one well or one pass, so single values are uncertain.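 Cells were imaged in 1,536-well plates, and nuclei stained with an antibody against cleaved PARP were counted against all DNA-stained nuclei to give the apoptosis fraction. Screening doses were chosen to leave most cells alive, and resting and induced cleaved-PARP levels differ strongly between cell lines.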

Key:
Assay in all cases: cleaved PARP positive nuclei fraction relative to DMSO control; melanoma cells; higher = more apoptosis
Details in all cases: library dose: low library concentration; 72 h
501Mel = system: 501Mel
A101D = system: A101D
A2058 = system: A2058
C32 = system: C32
CBRC008 = system: CBRC008 (line from a melanoma biopsy)
CBRC014 = system: CBRC014 (line from a melanoma biopsy)
CBRC016 = system: CBRC016 (line from a melanoma biopsy)
CBRC017 = system: CBRC017 (line from a melanoma biopsy)

SMILES	cleaved PARP positive nuclei fraction (501Mel) [%]	cleaved PARP positive nuclei fraction (A101D) [%]	cleaved PARP positive nuclei fraction (A2058) [%]	cleaved PARP positive nuclei fraction (C32) [%]	cleaved PARP positive nuclei fraction (CBRC008) [%]	cleaved PARP positive nuclei fraction (CBRC014) [%]	cleaved PARP positive nuclei fraction (CBRC016) [%]	cleaved PARP positive nuclei fraction (CBRC017) [%]
Cn1sc(=O)n(Cc2ccccc2)c1=O + C/C(O)=C(\C#N)C(=O)Nc1cc(Br)ccc1Br [LFM-A13] (first compound 0.4 µM, partner dose 2 µM)	60.8	29	35.1	28.4	45.9	118	98.1	95.5
C=CCNC1=C2C[C@@H](C)C[C@H](OC)[C@H](O)[C@@H](C)/C=C(\C)[C@H](OC(N)=O)[C@@H](OC)/C=C\C=C(/C)C(=O)NC(=CC1=O)C2=O [Tanespimycin] + O=C(Oc1ccc([N+](=O)[O-])cc1)N1CCC(C(O)(c2ccc3c(c2)OCO3)c2ccc3c(c2)OCO3)CC1 [JZL184] (first compound 0.002 µM, partner dose 1 µM)	167	10.1	75.9	150	131	87.6	54.2	51.4
N.N.[Cl][Pt][Cl] [cisplatin] + Oc1cc(-c2nc(-c3ccccc3)[nH]c2-c2ccncc2)ccc1Cl [L779450] (first compound 1.6 µM, partner dose 0.2 µM)	34.3	26.2	130	54	188	110	136	111
C[C@]12O[C@H](C[C@]1(O)CO)n1c3ccccc3c3c4c(c5c6ccccc6n2c5c31)CNC4=O [Lestaurtinib] + Oc1nc(-c2ccc(C(F)(F)F)cc2)nc2c1CSCC2 [XAV939] (first compound 0.004 µM, partner dose 2 µM)	146	38.4	39.8	80	45.8	96.4	86.5	83.5
Cn1cc(C2=C(c3cn(C4CCN(Cc5ccccn5)CC4)c4ccccc34)C(=O)NC2=O)c2ccccc21 [Enzastaurin] + O=S(=O)(c1ccccc1)N(CC(F)(F)F)c1ccc(C(O)(C(F)(F)F)C(F)(F)F)cc1 [T0901317] (first compound 0.8 µM, partner dose 1.4 µM)	205	14.5	241	258	38.1	122	75.2	95.4
Cn1cc(C2=C(c3cn(C4CCN(Cc5ccccn5)CC4)c4ccccc34)C(=O)NC2=O)c2ccccc21 [Enzastaurin] + CCN(CC)CCCCNc1ncc2cc(-c3cc(OC)cc(OC)c3)c(NC(=O)NC(C)(C)C)nc2n1 [PD173074] (first compound 0.8 µM, partner dose 0.1 µM)	173	31.6	41.4	252	288	122	135	158
Cn1cc(C2=C(c3cn(C4CCN(Cc5ccccn5)CC4)c4ccccc34)C(=O)NC2=O)c2ccccc21 [Enzastaurin] + CCc1ccc(CCOc2ccc(CC3SC(=O)NC3=O)cc2)nc1 [pioglitazone] (first compound 0.8 µM, partner dose 2 µM)	54.9	19.1	67.5	24.5	213	93.3	113	256
